Data: patent US20220220215A1
Results are given in words; binding and its absence hold for the method and conditions named. Binding calls can cover weak binding; strength is not graded here.

B1: TPP-1438 CD137A-6GS-HSA2-6GS-PD138G7(G109D)-6GS-PD138G7(G109D) (bispecific antibody)
chain: EVQLVESGGGLVQPGGSLRLSCAASGFTLSNYWMNWVRQAPGKGLEWVANINQDGSERYYVDSVKGRFTISRDNAKNSLYLQMNSLRAEDTAVYYCARGGEGYGVDHYGLDVSGQGTTVTVSSGGGGSGGGGSGGGGSGGGGSGGGGSGGGGSEVQLVESGGGLVKPGGSLRLSCAASGFTFSNYNMNWVRQAPGKGLEWVSSISSAGTHIYYADSVKGRFTISRDNAKNSLYLQMNSLRAEDTAVYYCARDPHSTGWYKDFDYWGQGTLVTVSSGGGGSGGGGSGGGGSGGGGSGGGGSGGGGSEVQLVESGGGVVRPGGSLRLSCAASGFTFDDYAMSWVRQAPGKGLEWVSGITWNGGSTGYADSVKDRFTISRDNAKNSLYLQMNSLRAEDTALYYCVRDKYSYAWSYDDFDIWGQGTMVTVSSGGGGSGGGGSGGGGSGGGGSGGGGSGGGGSEVQLVESGGGVVRPGGSLRLSCAASGFTFDDYAMSWVRQAPGKGLEWVSGITWNGGSTGYADSVKDRFTISRDNAKNSLYLQMNSLRAEDTALYYCVRDKYSYAWSYDDFDIWGQGTMVTVSS
B2: TPP-1439 PD138G7(G109D)-6GS-PD138G7(G109D)-6GS-CD137A-7-6GS-HSA2 (bispecific antibody)
chain: EVQLVESGGGVVRPGGSLRLSCAASGFTFDDYAMSWVRQAPGKGLEWVSGITWNGGSTGYADSVKDRFTISRDNAKNSLYLQMNSLRAEDTALYYCVRDKYSYAWSYDDFDIWGQGTMVTVSSGGGGSGGGGSGGGGSGGGGSGGGGSGGGGSEVQLVESGGGVVRPGGSLRLSCAASGFTFDDYAMSWVRQAPGKGLEWVSGITWNGGSTGYADSVKDRFTISRDNAKNSLYLQMNSLRAEDTALYYCVRDKYSYAWSYDDFDIWGQGTMVTVSSGGGGSGGGGSGGGGSGGGGSGGGGSGGGGSEVQLVESGGGLVQPGGSLRLSCAASGFTLSNYWMNWVRQAPGKGLEWVANINQDGSERYYVDSVKGRFTISRDNAKNSLYLQMNSLRAEDTAVYYCARGGEGYGVDHYGLDVSGQGTTVTVSSGGGGSGGGGSGGGGSGGGGSGGGGSGGGGSEVQLVESGGGLVKPGGSLRLSCAASGFTFSNYNMNWVRQAPGKGLEWVSSISSAGTHIYYADSVKGRFTISRDNAKNSLYLQMNSLRAEDTAVYYCARDPHSTGWYKDFDYWGQGTLVTVSS
B3: TPP-1409 CD137A-1GS-HSA2-1GS-PD138G7(G109D) (bispecific antibody)
chain: EVQLVESGGGLVQPGGSLRLSCAASGFTLSNYWMNWVRQAPGKGLEWVANINQDGSERYYVDSVKGRFTISRDNAKNSLYLQMNSLRAEDTAVYYCARGGEGYGVDHYGLDVSGQGTTVTVSSGGGGSEVQLVESGGGLVKPGGSLRLSCAASGFTFSNYNMNWVRQAPGKGLEWVSSISSAGTHIYYADSVKGRFTISRDNAKNSLYLQMNSLRAEDTAVYYCARDPHSTGWYKDFDYWGQGTLVTVSSGGGGSEVQLVESGGGVVRPGGSLRLSCAASGFTFDDYAMSWVRQAPGKGLEWVSGITWNGGSTGYADSVKDRFTISRDNAKNSLYLQMNSLRAEDTALYYCVRDKYSYAWSYDDFDIWGQGTMVTVSS
B4: TPP-1290 PD138G7(G109D)-6GS-CD137A-6GS-HSA2 (bispecific antibody)
chain: EVQLVESGGGVVRPGGSLRLSCAASGFTFDDYAMSWVRQAPGKGLEWVSGITWNGGSTGYADSVKDRFTISRDNAKNSLYLQMNSLRAEDTALYYCVRDKYSYAWSYDDFDIWGQGTMVTVSSGGGGSGGGGSGGGGSGGGGSGGGGSGGGGSEVQLVESGGGLVQPGGSLRLSCAASGFTLSNYWMNWVRQAPGKGLEWVANINQDGSERYYVDSVKGRFTISRDNAKNSLYLQMNSLRAEDTAVYYCARGGEGYGVDHYGLDVSGQGTTVTVSSGGGGSGGGGSGGGGSGGGGSGGGGSGGGGSEVQLVESGGGLVKPGGSLRLSCAASGFTFSNYNMNWVRQAPGKGLEWVSSISSAGTHIYYADSVKGRFTISRDNAKNSLYLQMNSLRAEDTAVYYCARDPHSTGWYKDFDYWGQGTLVTVSS
B5: TPP-1410 PD138G7(G109D)-1GS-CD137A-6GS-HSA2 (bispecific antibody)
chain: EVQLVESGGGVVRPGGSLRLSCAASGFTFDDYAMSWVRQAPGKGLEWVSGITWNGGSTGYADSVKDRFTISRDNAKNSLYLQMNSLRAEDTALYYCVRDKYSYAWSYDDFDIWGQGTMVTVSSGGGGSEVQLVESGGGLVQPGGSLRLSCAASGFTLSNYWMNWVRQAPGKGLEWVANINQDGSERYYVDSVKGRFTISRDNAKNSLYLQMNSLRAEDTAVYYCARGGEGYGVDHYGLDVSGQGTTVTVSSGGGGSGGGGSGGGGSGGGGSGGGGSGGGGSEVQLVESGGGLVKPGGSLRLSCAASGFTFSNYNMNWVRQAPGKGLEWVSSISSAGTHIYYADSVKGRFTISRDNAKNSLYLQMNSLRAEDTAVYYCARDPHSTGWYKDFDYWGQGTLVTVSS
B6: TPP-1246 CD137A-6GS-HSA2-6GS-PD138G7(G109D) (bispecific antibody)
chain: EVQLVESGGGLVQPGGSLRLSCAASGFTLSNYWMNWVRQAPGKGLEWVANINQDGSERYYVDSVKGRFTISRDNAKNSLYLQMNSLRAEDTAVYYCARGGEGYGVDHYGLDVSGQGTTVTVSSGGGGSGGGGSGGGGSGGGGSGGGGSGGGGSEVQLVESGGGLVKPGGSLRLSCAASGFTFSNYNMNWVRQAPGKGLEWVSSISSAGTHIYYADSVKGRFTISRDNAKNSLYLQMNSLRAEDTAVYYCARDPHSTGWYKDFDYWGQGTLVTVSSGGGGSGGGGSGGGGSGGGGSGGGGSGGGGSEVQLVESGGGVVRPGGSLRLSCAASGFTFDDYAMSWVRQAPGKGLEWVSGITWNGGSTGYADSVKDRFTISRDNAKNSLYLQMNSLRAEDTALYYCVRDKYSYAWSYDDFDIWGQGTMVTVSS

target: PD1 fused to a subunit of NanoLuc® luciferase, on cells (NanoBiT® assay) (human); experiment: NanoBiT cell based protein interaction assay

Row | binding | Binder
1 | binds | B1
2 | binds | B2
3 | binds | B3
4 | binds | B4
5 | binds | B5
6 | binds | B6

target: CD137 fused to a subunit of NanoLuc® luciferase, on cells (NanoBiT® assay) (human); experiment: NanoBiT cell based protein interaction assay

Row | binding | Binder
7 | binds | B1
8 | binds | B2
9 | binds | B3
10 | binds | B4
11 | binds | B5
12 | binds | B6
